These are yes or no findings as the source states them, for the method shown. Binding seen in cells or lysates may run through a third protein. A yes stands for co-enrichment or nearness to the bait. Other partners may have been found.
Molecular target: T1, ENDOG (bait of the ENDOG IP-Mass data) (UniProt Q14249)
T1 sequence: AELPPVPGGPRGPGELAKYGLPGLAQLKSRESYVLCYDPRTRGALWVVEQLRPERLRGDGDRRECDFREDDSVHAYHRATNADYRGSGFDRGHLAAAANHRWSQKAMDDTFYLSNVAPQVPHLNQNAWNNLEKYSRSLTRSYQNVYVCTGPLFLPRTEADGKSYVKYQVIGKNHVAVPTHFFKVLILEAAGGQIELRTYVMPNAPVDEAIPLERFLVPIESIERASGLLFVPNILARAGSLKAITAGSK
Experiment: affinity purification with mass spectrometry; reanalysis of the authors' ENDOG IP-Mass data of ref. 23

Amino acid sequences for entries named in this document (tags omitted). Residues count along the entry.
UniProt P11021, residues 19-654: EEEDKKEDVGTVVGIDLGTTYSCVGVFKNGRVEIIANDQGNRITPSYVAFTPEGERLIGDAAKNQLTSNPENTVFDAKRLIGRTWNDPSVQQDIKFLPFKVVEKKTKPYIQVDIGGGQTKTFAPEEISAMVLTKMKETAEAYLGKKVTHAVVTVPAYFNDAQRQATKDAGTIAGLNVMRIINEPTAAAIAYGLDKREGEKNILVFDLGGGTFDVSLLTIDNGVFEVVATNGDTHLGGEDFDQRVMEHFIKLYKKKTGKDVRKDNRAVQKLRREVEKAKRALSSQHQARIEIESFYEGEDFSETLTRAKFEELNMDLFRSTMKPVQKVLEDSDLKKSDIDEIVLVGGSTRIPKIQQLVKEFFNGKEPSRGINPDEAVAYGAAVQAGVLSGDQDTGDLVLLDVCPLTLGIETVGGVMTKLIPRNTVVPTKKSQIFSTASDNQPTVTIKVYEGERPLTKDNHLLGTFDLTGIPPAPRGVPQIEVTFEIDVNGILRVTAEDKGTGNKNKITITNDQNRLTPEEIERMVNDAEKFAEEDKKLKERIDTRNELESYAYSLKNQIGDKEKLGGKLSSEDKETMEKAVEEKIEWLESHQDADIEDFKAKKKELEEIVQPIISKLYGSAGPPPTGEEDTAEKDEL
UniProt P27824, residues 21-592: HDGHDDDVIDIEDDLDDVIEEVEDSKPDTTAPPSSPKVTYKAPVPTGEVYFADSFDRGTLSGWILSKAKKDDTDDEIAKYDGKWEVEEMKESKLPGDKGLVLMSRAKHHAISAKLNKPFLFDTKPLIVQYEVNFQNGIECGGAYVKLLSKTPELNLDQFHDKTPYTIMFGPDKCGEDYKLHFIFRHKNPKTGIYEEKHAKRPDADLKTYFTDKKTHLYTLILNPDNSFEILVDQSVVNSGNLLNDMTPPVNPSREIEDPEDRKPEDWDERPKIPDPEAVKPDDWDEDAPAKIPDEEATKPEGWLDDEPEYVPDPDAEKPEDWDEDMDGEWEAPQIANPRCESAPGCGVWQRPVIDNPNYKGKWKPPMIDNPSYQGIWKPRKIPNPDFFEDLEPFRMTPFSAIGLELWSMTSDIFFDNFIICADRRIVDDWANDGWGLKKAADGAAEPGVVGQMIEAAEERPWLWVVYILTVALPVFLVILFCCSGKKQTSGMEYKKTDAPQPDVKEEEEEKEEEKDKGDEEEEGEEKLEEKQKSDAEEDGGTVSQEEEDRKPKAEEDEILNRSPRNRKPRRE
UniProt P38646, residues 47-679: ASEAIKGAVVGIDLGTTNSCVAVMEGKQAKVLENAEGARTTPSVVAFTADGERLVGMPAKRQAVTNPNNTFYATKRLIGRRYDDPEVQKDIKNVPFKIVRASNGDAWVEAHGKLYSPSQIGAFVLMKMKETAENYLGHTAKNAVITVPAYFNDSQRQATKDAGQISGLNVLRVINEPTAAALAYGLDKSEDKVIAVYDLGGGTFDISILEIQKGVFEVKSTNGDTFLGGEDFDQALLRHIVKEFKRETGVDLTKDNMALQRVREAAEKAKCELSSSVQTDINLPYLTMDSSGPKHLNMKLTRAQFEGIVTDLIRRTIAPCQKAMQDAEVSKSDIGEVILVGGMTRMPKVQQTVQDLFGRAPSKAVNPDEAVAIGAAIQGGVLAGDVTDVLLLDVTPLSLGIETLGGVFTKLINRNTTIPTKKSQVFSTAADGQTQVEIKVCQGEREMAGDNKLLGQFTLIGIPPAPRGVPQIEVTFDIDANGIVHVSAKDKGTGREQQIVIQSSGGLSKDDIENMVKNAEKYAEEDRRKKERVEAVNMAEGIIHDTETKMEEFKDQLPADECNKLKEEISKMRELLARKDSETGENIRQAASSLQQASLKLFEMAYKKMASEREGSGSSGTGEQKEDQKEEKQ

Question: How did the binding turn out when “Bip (hit of the ENDOG IP-Mass data) (from UniProt P11021 19-654)” was run?
Answer: Its binding is “binds”.

Question: Which binding does the source give for “Calnexin (hit of the ENDOG IP-Mass data) (from UniProt P27824 21-592)” here?
Answer: Its binding is “binds”.

Question: Which binding does the source give for “Grp75 (hit of the ENDOG IP-Mass data) (from UniProt P38646 47-679)” here?
Answer: Its binding is “binds”.
